Experiment [1] has as its target D2R-EYFP (UniProt P61169). In words: FRET or BRET; FRET; D2R-EYFP and GHS-R1a-ECFP cotransfected into PC-12 cells; Nikon A1R confocal microscope, FRET ratio imaging. Background: Bioluminescence resonance energy transfer reports proximity on the nanometre scale.
In experiment [2] the target is Dopamine type 2 receptor (D2R), endogenous in PC-12 cells (rat (endogenous in PC-12)) (UniProt P61169). In words: proximity ligation; PC-12 cells fixed with 4% paraformaldehyde; mouse anti-GHS-R1a and rabbit anti-D2R, Duolink II PLA probes; untreated cells and cells treated with 2 mM MPP+ for 24 h (fewer PLA signals).
In experiment [3] the target is Dopamine type 2 receptor (D2R), endogenous in mouse substantia nigra (mouse (endogenous in brain slices)) (UniProt P61168). In words: proximity ligation; mouse brain slices (substantia nigra); mouse anti-GHS-R1a and rabbit anti-D2R, Duolink II PLA probes; wild-type mice and MPTP-treated mice (fewer PLA signals).

Protein sequences, listed by entry. Tags and fused reporters are not part of them. Lines headed by an entry give the natural chain unless they say otherwise; changes in a name come on top.
UniProt P61169: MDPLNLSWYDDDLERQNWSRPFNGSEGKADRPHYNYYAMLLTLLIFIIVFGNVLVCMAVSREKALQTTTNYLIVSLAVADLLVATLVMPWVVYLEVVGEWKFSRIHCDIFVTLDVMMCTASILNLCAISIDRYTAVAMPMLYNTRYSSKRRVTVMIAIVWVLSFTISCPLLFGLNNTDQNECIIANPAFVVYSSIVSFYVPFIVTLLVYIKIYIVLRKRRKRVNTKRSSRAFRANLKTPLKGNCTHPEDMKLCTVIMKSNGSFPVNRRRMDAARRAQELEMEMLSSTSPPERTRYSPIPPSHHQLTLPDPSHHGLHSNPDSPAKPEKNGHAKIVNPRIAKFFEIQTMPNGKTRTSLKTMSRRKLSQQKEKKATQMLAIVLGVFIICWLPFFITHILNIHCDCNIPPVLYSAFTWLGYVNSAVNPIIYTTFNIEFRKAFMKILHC
UniProt P61168: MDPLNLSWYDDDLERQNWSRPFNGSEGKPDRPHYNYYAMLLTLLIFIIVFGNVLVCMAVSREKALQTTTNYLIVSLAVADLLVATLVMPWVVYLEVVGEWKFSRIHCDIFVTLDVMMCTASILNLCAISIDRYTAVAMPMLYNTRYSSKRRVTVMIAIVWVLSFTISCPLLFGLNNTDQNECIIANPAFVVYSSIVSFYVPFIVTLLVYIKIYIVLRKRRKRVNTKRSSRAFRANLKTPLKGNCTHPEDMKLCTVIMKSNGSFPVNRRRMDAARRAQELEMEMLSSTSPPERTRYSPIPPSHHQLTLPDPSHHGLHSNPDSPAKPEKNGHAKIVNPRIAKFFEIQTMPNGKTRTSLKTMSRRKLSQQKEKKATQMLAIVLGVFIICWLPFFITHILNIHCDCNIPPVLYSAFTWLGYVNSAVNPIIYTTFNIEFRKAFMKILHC
UniProt O08725: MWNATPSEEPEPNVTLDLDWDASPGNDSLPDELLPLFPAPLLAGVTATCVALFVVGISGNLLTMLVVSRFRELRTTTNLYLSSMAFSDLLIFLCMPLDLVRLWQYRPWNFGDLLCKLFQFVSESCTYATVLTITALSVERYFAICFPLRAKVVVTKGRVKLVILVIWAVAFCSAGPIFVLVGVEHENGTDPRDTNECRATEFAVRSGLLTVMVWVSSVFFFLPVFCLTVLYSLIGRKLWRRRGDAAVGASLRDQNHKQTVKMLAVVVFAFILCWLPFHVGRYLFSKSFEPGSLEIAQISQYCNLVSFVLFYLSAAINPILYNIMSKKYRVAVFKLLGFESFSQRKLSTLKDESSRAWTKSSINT
UniProt Q99P50: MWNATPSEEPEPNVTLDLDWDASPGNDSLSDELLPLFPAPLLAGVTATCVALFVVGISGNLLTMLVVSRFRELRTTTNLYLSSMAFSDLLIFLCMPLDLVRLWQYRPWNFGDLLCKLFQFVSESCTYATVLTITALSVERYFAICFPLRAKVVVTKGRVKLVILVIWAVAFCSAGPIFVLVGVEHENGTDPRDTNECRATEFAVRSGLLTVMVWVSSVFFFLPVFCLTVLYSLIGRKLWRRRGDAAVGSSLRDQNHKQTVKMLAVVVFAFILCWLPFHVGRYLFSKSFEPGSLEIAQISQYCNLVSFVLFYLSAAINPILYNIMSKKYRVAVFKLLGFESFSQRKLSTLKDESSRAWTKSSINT

These are yes or no findings as the source states them, for the method shown. In cells and extracts the contact can be indirect. Some entries that bind do so weakly or less than the wild type.

Data on 3 substances can be found in PMC10374575.

Take “GHS-R1a-ECFP (from UniProt O08725 1-364) (receptor)”: the binding entry in experiment [1] is recorded as “binds”.

In the case of “Growth hormone secretagogue receptor 1a (GHS-R1a), endogenous in PC-12 cells (from UniProt O08725 1-364)”, the binding entry in experiment [2] is listed as “binds”.

For “Growth hormone secretagogue receptor 1a (GHS-R1a), endogenous in mouse substantia nigra (from UniProt Q99P50 1-364)”, the binding entry in experiment [3] is on record as “binds”.
